Test results reported in US20130023485A1, “PARENTERAL FORMULATIONS OF PEPTIDES FOR THE TREATMENT OF SYSTEMATIC LUPUS ERYTHEMATOSUS” (Teva Pharmaceutical Industries, Ltd., priority 2003, published 2013).

Test system: SLE subjects
Assay: Phase Ia clinical study, single s.c. dose, tolerability and safety
Assay type: in vivo, human
Details: change of ≧3, ≦12 points; except one subject in the 0.5 mg group
Procedure: Thirty-six (36) subjects participated in the study. To be eligible for inclusion in the study, SLE patients must have fulfilled at least four criteria used for the diagnosis of lupus by the American College of Rheumatology. Patients must also have had stable, mild/moderate disease and score less than or equal to 10 on the SLE Disease Activity Index, SLEDAI. […] A standard battery of safety tests, including blood and urine collection for laboratory tests, was performed at screening, during the day of dosing, at 24 hours post-dose and at 2, 4 and 8 weeks following dosing. Prior to dosing, and on scheduled follow-up visits, blood samples were withdrawn for SLE-related immunological tests, anti-Compound 1 antibodies and PBL proliferation assay. […] The following safety parameters were assessed at Screening, during the hospitalization and at follow-up visits including Termination visit: vital signs (systolic blood pressure, diastolic blood pressure, pulse, oxygen saturation, temperature and weight), 12-lead ECG, change in physical examination and clinical routine laboratory safety tests. Adverse events were recorded at the Dosing Day and at each visit thereafter. […] Disease activity assessment using the SLE disease activity index score, year 2000 updated (SLEDAI 2K) was assessed at Screening, during the hospitalization and at follow-up visits including Termination visit.

For H-GYYWSWIRQPPGKGEEWIG-OH [Compound 1], the SLEDAI score was “No clinically significant effects”.
